Reference: PMC10936183
Results are given in words; binding and its absence hold for the method and conditions named. Binding seen in cells or lysates may run through a third protein. These calls come from enrichment with a bait or labelling near it, and not all partners need be listed.

By UniProt entry, the sequences of proteins in these tests, tags left out. Residues count along the entry.
UniProt O94822: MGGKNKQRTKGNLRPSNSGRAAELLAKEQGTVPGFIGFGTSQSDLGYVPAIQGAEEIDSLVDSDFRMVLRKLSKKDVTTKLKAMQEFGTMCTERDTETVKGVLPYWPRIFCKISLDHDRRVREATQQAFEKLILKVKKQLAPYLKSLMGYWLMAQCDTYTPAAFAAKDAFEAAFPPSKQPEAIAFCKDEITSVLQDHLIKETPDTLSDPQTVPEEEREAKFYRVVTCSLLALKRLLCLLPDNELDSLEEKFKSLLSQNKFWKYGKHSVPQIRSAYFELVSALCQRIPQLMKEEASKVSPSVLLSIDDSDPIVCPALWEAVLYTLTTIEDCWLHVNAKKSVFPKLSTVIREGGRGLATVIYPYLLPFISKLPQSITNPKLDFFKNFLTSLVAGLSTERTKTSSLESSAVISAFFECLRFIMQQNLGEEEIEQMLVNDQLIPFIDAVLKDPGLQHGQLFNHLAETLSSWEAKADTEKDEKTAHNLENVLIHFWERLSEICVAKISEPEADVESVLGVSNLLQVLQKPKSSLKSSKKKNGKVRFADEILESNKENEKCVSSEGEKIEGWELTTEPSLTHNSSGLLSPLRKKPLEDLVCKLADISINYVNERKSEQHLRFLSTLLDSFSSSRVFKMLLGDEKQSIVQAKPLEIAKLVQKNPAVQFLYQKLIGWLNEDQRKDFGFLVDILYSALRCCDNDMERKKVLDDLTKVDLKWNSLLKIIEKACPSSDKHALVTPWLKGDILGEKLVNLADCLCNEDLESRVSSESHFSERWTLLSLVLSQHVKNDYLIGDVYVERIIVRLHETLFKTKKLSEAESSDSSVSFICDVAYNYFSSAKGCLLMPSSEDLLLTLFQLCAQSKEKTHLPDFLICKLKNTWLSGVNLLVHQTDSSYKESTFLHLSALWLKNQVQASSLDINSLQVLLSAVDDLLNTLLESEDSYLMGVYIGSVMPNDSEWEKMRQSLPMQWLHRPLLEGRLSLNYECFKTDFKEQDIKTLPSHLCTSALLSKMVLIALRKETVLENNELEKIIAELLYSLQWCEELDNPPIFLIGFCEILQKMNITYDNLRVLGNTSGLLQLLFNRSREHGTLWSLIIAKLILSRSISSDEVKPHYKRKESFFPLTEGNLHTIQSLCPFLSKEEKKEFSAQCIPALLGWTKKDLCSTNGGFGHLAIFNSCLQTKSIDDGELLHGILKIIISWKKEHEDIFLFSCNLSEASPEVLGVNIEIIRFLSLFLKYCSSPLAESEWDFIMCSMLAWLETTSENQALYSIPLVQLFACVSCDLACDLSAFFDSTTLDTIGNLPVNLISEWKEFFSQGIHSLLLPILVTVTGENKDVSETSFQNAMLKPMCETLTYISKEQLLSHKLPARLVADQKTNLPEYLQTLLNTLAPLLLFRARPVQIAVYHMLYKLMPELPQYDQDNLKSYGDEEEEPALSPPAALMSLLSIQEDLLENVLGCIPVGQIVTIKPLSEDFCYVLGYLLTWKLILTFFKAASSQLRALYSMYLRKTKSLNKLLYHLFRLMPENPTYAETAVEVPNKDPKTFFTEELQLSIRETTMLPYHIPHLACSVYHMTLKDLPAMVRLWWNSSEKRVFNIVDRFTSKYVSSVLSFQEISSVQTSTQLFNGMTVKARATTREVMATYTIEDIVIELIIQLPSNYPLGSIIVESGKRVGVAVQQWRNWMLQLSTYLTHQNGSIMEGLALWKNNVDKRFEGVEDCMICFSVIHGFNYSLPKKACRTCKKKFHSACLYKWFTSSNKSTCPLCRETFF
UniProt Q9UKV5: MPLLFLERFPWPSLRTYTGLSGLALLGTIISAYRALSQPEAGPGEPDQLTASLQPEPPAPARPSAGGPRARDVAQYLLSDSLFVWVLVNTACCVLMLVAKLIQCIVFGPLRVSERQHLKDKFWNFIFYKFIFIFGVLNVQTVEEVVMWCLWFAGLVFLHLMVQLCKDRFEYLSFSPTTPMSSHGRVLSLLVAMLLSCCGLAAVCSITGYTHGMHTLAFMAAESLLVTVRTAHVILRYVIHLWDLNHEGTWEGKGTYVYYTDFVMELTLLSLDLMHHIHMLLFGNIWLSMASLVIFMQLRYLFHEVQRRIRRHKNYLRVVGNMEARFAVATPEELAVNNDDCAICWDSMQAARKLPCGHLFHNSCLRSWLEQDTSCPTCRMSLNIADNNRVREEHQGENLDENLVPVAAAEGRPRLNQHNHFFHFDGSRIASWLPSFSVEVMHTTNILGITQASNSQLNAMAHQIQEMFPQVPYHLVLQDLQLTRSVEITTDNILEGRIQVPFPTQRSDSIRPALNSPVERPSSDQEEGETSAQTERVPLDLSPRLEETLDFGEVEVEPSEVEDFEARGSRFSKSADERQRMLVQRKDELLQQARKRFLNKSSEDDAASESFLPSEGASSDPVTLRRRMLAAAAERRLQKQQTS
UniProt P11021, residues 19-654: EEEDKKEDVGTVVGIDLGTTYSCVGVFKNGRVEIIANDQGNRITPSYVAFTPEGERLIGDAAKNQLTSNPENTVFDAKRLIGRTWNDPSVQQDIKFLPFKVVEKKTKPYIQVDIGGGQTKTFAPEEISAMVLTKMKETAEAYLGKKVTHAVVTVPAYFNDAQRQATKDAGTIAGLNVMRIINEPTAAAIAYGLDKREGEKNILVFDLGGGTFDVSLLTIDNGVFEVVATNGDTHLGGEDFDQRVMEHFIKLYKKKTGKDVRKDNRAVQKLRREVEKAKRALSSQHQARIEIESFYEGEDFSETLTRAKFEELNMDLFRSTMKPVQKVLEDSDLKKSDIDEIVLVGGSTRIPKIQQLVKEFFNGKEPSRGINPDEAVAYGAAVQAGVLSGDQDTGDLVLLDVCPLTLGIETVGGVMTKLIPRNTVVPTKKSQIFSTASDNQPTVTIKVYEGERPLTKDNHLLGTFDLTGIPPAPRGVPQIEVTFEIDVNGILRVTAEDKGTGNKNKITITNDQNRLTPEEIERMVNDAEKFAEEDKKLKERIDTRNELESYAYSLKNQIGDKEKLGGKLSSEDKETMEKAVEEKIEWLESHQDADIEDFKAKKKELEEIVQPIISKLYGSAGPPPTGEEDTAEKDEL

Biological target: GFP-tagged NSP6 (SARS-CoV-2 nonstructural protein 6, full-length NSP6 1–290) (SARS-CoV-2) (UniProt P0DTD1)
Assay: affinity purification with mass spectrometry

With LTN1 (from UniProt O94822 1-1766) the binding was “binds”.

For HSPA8 (from UniProt P11142 1-646), the binding was “binds”.

With PSMC4 (from UniProt P43686 1-418) the binding was “binds”.

With AMFR (from UniProt Q9UKV5 1-643) the binding was “binds”.

In the case of HSPA5 (from UniProt P11021 19-654), the binding is reported as “binds”.

In the case of PSMD4 (from UniProt P55036 1-377), the binding is reported as “binds”.

B1: ERLIN1 (protein, UniProt O75477 1-348)
chain: MNMTQARVLVAAVVGLVAVLLYASIHKIEEGHLAVYYRGGALLTSPSGPGYHIMLPFITTFRSVQTTLQTDEVKNVPCGTSGGVMIYIDRIEVVNMLAPYAVFDIVRNYTADYDKTLIFNKIHHELNQFCSAHTLQEVYIELFDQIDENLKQALQKDLNLMAPGLTIQAVRVTKPKIPEAIRRNFELMEAEKTKLLIAAQKQKVVEKEAETERKKAVIEAEKIAQVAKIRFQQKVMEKETEKRISEIEDAAFLAREKAKADAEYYAAHKYATSNKHKLTPEYLELKKYQAIASNSKIYFGSNIPNMFVDSSCALKYSDIRTGRESSLPSKEALEPSGENVIQNKESTG
With B1 the binding was “binds”.

B2: CERS2 (protein, UniProt Q96G23 1-380)
chain: MLQTLYDYFWWERLWLPVNLTWADLEDRDGRVYAKASDLYITLPLALLFLIVRYFFELYVATPLAALLNIKEKTRLRAPPNATLEHFYLTSGKQPKQVEVELLSRQSGLSGRQVERWFRRRRNQDRPSLLKKFREASWRFTFYLIAFIAGMAVIVDKPWFYDMKKVWEGYPIQSTIPSQYWYYMIELSFYWSLLFSIASDVKRKDFKEQIIHHVATIILISFSWFANYIRAGTLIMALHDSSDYLLESAKMFNYAGWKNTCNNIFIVFAIVFIITRLVILPFWILHCTLVYPLELYPAFFGYYFFNSMMGVLQLLHIFWAYLILRMAHKFITGKLVEDERSDREETESSEGEEAAAGGGAKSRPLANGHPILNNNHRKND
With B2 the binding was “binds”.

B3: SPTLC1 (protein, UniProt O15269 1-473)
chain: MATATEQWVLVEMVQALYEAPAYHLILEGILILWIIRLLFSKTYKLQERSDLTVKEKEELIEEWQPEPLVPPVPKDHPALNYNIVSGPPSHKTVVNGKECINFASFNFLGLLDNPRVKAAALASLKKYGVGTCGPRGFYGTFDVHLDLEDRLAKFMKTEEAIIYSYGFATIASAIPAYSKRGDIVFVDRAACFAIQKGLQASRSDIKLFKHNDMADLERLLKEQEIEDQKNPRKARVTRRFIVVEGLYMNTGTICPLPELVKLKYKYKARIFLEESLSFGVLGEHGRGVTEHYGINIDDIDLISANMENALASIGGFCCGRSFVIDHQRLSGQGYCFSASLPPLLAAAAIEALNIMEENPGIFAVLKEKCGQIHKALQGISGLKVVGESLSPAFHLQLEESTGSREQDVRLLQEIVDQCMNRSIALTQARYLEKEEKCLPPPSIRVVVTVEQTEEELERAASTIKEVAQAVLL
B3 was tested, and the binding was “binds”.

B4: ERLIN2 (protein, UniProt O94905 1-339)
chain: MAQLGAVVAVASSFFCASLFSAVHKIEEGHIGVYYRGGALLTSTSGPGFHLMLPFITSYKSVQTTLQTDEVKNVPCGTSGGVMIYFDRIEVVNFLVPNAVYDIVKNYTADYDKALIFNKIHHELNQFCSVHTLQEVYIELFDQIDENLKLALQQDLTSMAPGLVIQAVRVTKPNIPEAIRRNYELMESEKTKLLIAAQKQKVVEKEAETERKKALIEAEKVAQVAEITYGQKVMEKETEKKISEIEDAAFLAREKAKADAECYTAMKIAEANKLKLTPEYLQLMKYKAIASNSKIYFGKDIPNMFMDSAGSVSKQFEGLADKLSFGLEDEPLETATKEN
In the case of B4, the binding is reported as “binds”.

B5: RPN1 (protein, UniProt P04843 24-607)
chain: ASSEAPPLINEDVKRTVDLSSHLAKVTAEVVLAHLGGGSTSRATSFLLALEPELEARLAHLGVQVKGEDEEENNLEVRETKIKGKSGRFFTVKLPVALDPGAKISVIVETVYTHVLHPYPTQITQSEKQFVVFEGNHYFYSPYPTKTQTMRVKLASRNVESYTKLGNPTRSEDLLDYGPFRDVPAYSQDTFKVHYENNSPFLTITSMTRVIEVSHWGNIAVEENVDLKHTGAVLKGPFSRYDYQRQPDSGISSIRSFKTILPAAAQDVYYRDEIGNVSTSHLLILDDSVEMEIRPRFPLFGGWKTHYIVGYNLPSYEYLYNLGDQYALKMRFVDHVFDEQVIDSLTVKIILPEGAKNIEIDSPYEISRAPDELHYTYLDTFGRPVIVAYKKNLVEQHIQDIVVHYTFNKVLMLQEPLLVVAAFYILFFTVIIYVRLDFSITKDPAAEARMKVACITEQVLTLVNKRIGLYRHFDETVNRYKQSRDISTLNSGKKSLETEHKALTSEIALLQSRLKTEGSDLCDRVSEMQKLDAQVKELVLKSAVEAERLVAGKLKKDTYIENEKLISGKRQELVTKIDHILDAL
With B5 the binding was “binds”.
